Measured values: the supplement of paper PMC7238544
Where a name gives a salt, the structure may show the parent alone. ± gives the standard deviation of the averaged measurements. The list shows a part of the results. The data scatter; read single values as rough.

Each molecule was assayed on hAMSC donor 1 (assay: transfection efficiency (EGFP+ cells / Hoechst count) fold change vs vehicle control (ratio); hAMSC are human adipose-derived mesenchymal stem cells given an EGFP-luciferase plasmid by lipofection; higher = enhanced transfection). Details: priming compound concentration 13 µM.
Work on `Clc1ccc(CO/N=C(\Cn2ccnc2)c2ccc(Cl)cc2Cl)c(Cl)c1` [Oxiconazole nitrate] yielded a transfection efficiency of 0.686 ± 0.21.
In the case of `CN1CCN(CCCN2c3ccccc3Sc3ccc(Cl)cc32)CC1` [Prochlorperazine maleate], the transfection efficiency is reported as 0.618 ± 0.018.
Work on `C=C1/C(=C\C=C2/CCC[C@]3(C)[C@@H]([C@H](C)CCCC(C)(C)O)CC[C@@H]23)C[C@@H](O)C[C@@H]1O` [Calcitriol] yielded a transfection efficiency of 1.34 ± 0.46.
Molecule `C#C[C@]1(O)CC[C@H]2[C@@H]3CCc4cc(OC)ccc4[C@H]3CC[C@@]21C` [Mestranol] has a transfection efficiency of 0.847 ± 0.2.
`Nc1ccn([C@@H]2O[C@H](CO)[C@@H](O)[C@@H]2O)c(=O)n1` [Cytarabine] showed a transfection efficiency of 1.45 ± 0.28.
With `COc1cccc2c1C(=O)c1c(O)c3c(c(O)c1C2=O)C[C@@](O)(C(C)=O)C[C@@H]3O[C@H]1C[C@H](N)[C@H](O)[C@H](C)O1` [Daunorubicin hydrochloride] the transfection efficiency was 1.67 ± 0.47.
`CC/C(=C(\c1ccccc1)c1ccc(OCCN(C)C)cc1)c1ccccc1` [Tamoxifen] was tested, and the transfection efficiency was 0.608 ± 0.064.
`COc1ccc(CN2CCN(C(c3ccc(F)cc3)c3ccc(F)cc3)CC2)c(OC)c1OC` [Lomerizine dihydrochloride] showed a transfection efficiency of 0.719 ± 0.3.
With `CC(C)NCC(O)COc1cccc2ccccc12` (stereo not given) [Propranolol hydrochloride] the transfection efficiency was 1.16 ± 0.28.
`CN[C@@H]1[C@H](O)[C@H](NC)[C@H]2O[C@@]3(O)C(=O)C[C@@H](C)O[C@H]3O[C@@H]2[C@H]1O` [Spectinomycin] showed a transfection efficiency of 1.28 ± 0.28.
For `C=C[C@H]1CN2CC[C@H]1C[C@@H]2[C@@H](O)c1ccnc2ccc(OC)cc12` [Quinidine], the transfection efficiency was 1.25 ± 0.49.
With `N[C@@H]1CONC1=O` [D-Cycloserine] the transfection efficiency was 1.28 ± 0.95.
`CC(C)NCC(O)c1ccc(O)c(O)c1` (stereo not given) [Isoproterenol hydrochloride] was tested, and the transfection efficiency was 0.738 ± 0.17.
Work on `NC(=O)c1cccnc1` [Nicotinamide] yielded a transfection efficiency of 0.95 ± 0.12.
In the case of `CC(=O)Oc1ccccc1C(=O)Nc1ncc([N+](=O)[O-])s1` [Nitazoxanide], the transfection efficiency is reported as 1.63 ± 0.17.
`Cc1nc2ccccn2c(=O)c1CCN1CCC(C(=O)c2ccc(F)cc2)CC1` [Pirenperone] gave a transfection efficiency of 0.623 ± 0.23.
For `CC(C)(C(=O)O)c1ccc(C(O)CCCN2CCC(C(O)(c3ccccc3)c3ccccc3)CC2)cc1` (stereo not given) [Fexofenadine hydrochloride], the transfection efficiency was 1.06 ± 0.27.
`CC1CNc2c(cccc2S(=O)(=O)N[C@@H](CCCNC(=N)N)C(=O)N2CC[C@@H](C)C[C@@H]2C(=O)O)C1` (stereo not given in full) [Argatroban] showed a transfection efficiency of 1.19 ± 0.2.
In the case of `O=c1[nH]cnc2c1ncn2[C@H]1CC[C@@H](CO)O1` [Didanosine], the transfection efficiency is reported as 0.866 ± 0.21.
For `CC(C)NCC(O)COc1ccc(COCCOC(C)C)cc1` (stereo not given) [Bisoprolol fumarate], the transfection efficiency was 0.865 ± 0.15.
Molecule `CCN1CCN(c2cc3c(cc2F)c(=O)c(C(=O)O)cn3C2CC2)CC1` [Enrofloxacin] has a transfection efficiency of 0.873 ± 0.14.
Work on `O=C1N(c2ccccc2)c2ccccc2C1(Cc1ccncc1)Cc1ccncc1` [Linopirdine dihydrochloride] yielded a transfection efficiency of 1.18 ± 0.45.
`CN(C)CCC=C1c2ccccc2COc2ccccc21` [Doxepin hydrochloride] was tested, and the transfection efficiency was 0.749 ± 0.37.
With `C[C@@H]1CN(CCCn2c3ccccc3c3ccccc32)C[C@H](C)N1` [Rimcazole dihydrochloride] the transfection efficiency was 1.33 ± 0.31.
`Nc1nc2ccc(OC(F)(F)F)cc2s1` [Riluzole hydrochloride] gave a transfection efficiency of 1.03 ± 0.45.
Work on `NC(N)=Nc1nc(CSCC/C(N)=N/S(N)(=O)=O)cs1` [Famotidine] yielded a transfection efficiency of 1.73 ± 0.39.
`CN(C)CCN(Cc1ccccc1)c1ccccn1` [Tripelennamine hydrochloride] gave a transfection efficiency of 1.02 ± 0.16.

These molecules were tested on hAMSC donor 2 in the same assay as above. Details: priming compound concentration 0.2 µM.
Molecule `O=C1NC(=O)C(c2ccccc2)(c2ccccc2)N1` [Dilantin] has a transfection efficiency of 1.35 ± 0.34.
Molecule `CC(C)C[C@H](NC(=O)[C@@H](COC(C)(C)C)NC(=O)[C@H](Cc1ccc(O)cc1)NC(=O)[C@H](CO)NC(=O)[C@H](Cc1c[nH]c2ccccc12)NC(=O)[C@H](Cc1cnc[nH]1)NC(=O)[C@@H]1CCC(=O)N1)C(=O)N[C@@H](CCCNC(=N)N)C(=O)N1CCC[C@H]1C(=O)NNC(N)=O` [Goserelin acetate] has a transfection efficiency of 0.754 ± 0.056.
Molecule `O=C1CN(/N=C/c2ccc(-c3ccc([N+](=O)[O-])cc3)o2)C(=O)N1` [Dantrolene sodium] has a transfection efficiency of 1.15 ± 0.067.
For `CCN(CC)CC(=O)Nc1c(C)cccc1C` [Lidocaine], the transfection efficiency was 0.902 ± 0.046.
`C=CC[C@@H]1/C=C(\C)C[C@H](C)C[C@H](OC)[C@H]2O[C@@](O)(C(=O)C(=O)N3CCCC[C@H]3C(=O)O[C@H](/C(C)=C/[C@@H]3CC[C@@H](O)[C@H](OC)C3)[C@H](C)[C@@H](O)CC1=O)[C@H](C)C[C@@H]2OC` [Tacrolimus] showed a transfection efficiency of 0.993 ± 0.24.
`CC[C@@H](CO)NCCN[C@@H](CC)CO` [Ethambutol] was tested, and the transfection efficiency was 1.08 ± 0.2.
With `O=C(O)CCCc1ccccc1` [4-Phenylbutyric acid] the transfection efficiency was 1.07 ± 0.063.
`O=c1c(-c2ccccc2)c1-c1ccccc1` [Diphenylcyclopropenone] showed a transfection efficiency of 0.813 ± 0.068.
`CC(C)(C(=O)c1cccnc1)c1cccnc1` [Metyrapone] gave a transfection efficiency of 1.26 ± 0.098.
`COc1c(N2CCNC(C)C2)c(F)cc2c(=O)c(C(=O)O)cn(C3CC3)c12` (stereo not given) [Gatifloxacin] was tested, and the transfection efficiency was 1.38 ± 0.22.
With `Cc1cnc(C(=O)NCCc2ccc(S(=O)(=O)NC(=O)NC3CCCCC3)cc2)cn1` [Glipizide] the transfection efficiency was 1.13 ± 0.28.
In the case of `Clc1ccc(CO/N=C(\Cn2ccnc2)c2ccc(Cl)cc2Cl)c(Cl)c1` [Oxiconazole nitrate], the transfection efficiency is reported as 0.856 ± 0.28.
`CN1CCN(CCCN2c3ccccc3Sc3ccc(Cl)cc32)CC1` [Prochlorperazine maleate] showed a transfection efficiency of 1.01 ± 0.022.
Molecule `C=C1/C(=C\C=C2/CCC[C@]3(C)[C@@H]([C@H](C)CCCC(C)(C)O)CC[C@@H]23)C[C@@H](O)C[C@@H]1O` [Calcitriol] has a transfection efficiency of 1.4 ± 0.21.
Work on `C#C[C@]1(O)CC[C@H]2[C@@H]3CCc4cc(OC)ccc4[C@H]3CC[C@@]21C` [Mestranol] yielded a transfection efficiency of 1.13 ± 0.32.
`Nc1ccn([C@@H]2O[C@H](CO)[C@@H](O)[C@@H]2O)c(=O)n1` [Cytarabine] was tested, and the transfection efficiency was 0.962 ± 0.2.
`COc1cccc2c1C(=O)c1c(O)c3c(c(O)c1C2=O)C[C@@](O)(C(C)=O)C[C@@H]3O[C@H]1C[C@H](N)[C@H](O)[C@H](C)O1` [Daunorubicin hydrochloride] gave a transfection efficiency of 3.3 ± 0.6.
With `CC/C(=C(\c1ccccc1)c1ccc(OCCN(C)C)cc1)c1ccccc1` [Tamoxifen] the transfection efficiency was 1.09 ± 0.048.
Work on `COc1ccc(CN2CCN(C(c3ccc(F)cc3)c3ccc(F)cc3)CC2)c(OC)c1OC` [Lomerizine dihydrochloride] yielded a transfection efficiency of 1.29 ± 0.31.
`CC(C)NCC(O)COc1cccc2ccccc12` (stereo not given) [Propranolol hydrochloride] gave a transfection efficiency of 1.02 ± 0.13.
`CN[C@@H]1[C@H](O)[C@H](NC)[C@H]2O[C@@]3(O)C(=O)C[C@@H](C)O[C@H]3O[C@@H]2[C@H]1O` [Spectinomycin] was tested, and the transfection efficiency was 0.874 ± 0.11.
For `C=C[C@H]1CN2CC[C@H]1C[C@@H]2[C@@H](O)c1ccnc2ccc(OC)cc12` [Quinidine], the transfection efficiency was 1.27 ± 0.27.
In the case of `N[C@@H]1CONC1=O` [D-Cycloserine], the transfection efficiency is reported as 0.793 ± 0.14.
For `CC(C)NCC(O)c1ccc(O)c(O)c1` (stereo not given) [Isoproterenol hydrochloride], the transfection efficiency was 1.15 ± 0.065.
Work on `NC(=O)c1cccnc1` [Nicotinamide] yielded a transfection efficiency of 1.17 ± 0.18.
In the case of `CC(=O)Oc1ccccc1C(=O)Nc1ncc([N+](=O)[O-])s1` [Nitazoxanide], the transfection efficiency is reported as 1.15 ± 0.21.
`Cc1nc2ccccn2c(=O)c1CCN1CCC(C(=O)c2ccc(F)cc2)CC1` [Pirenperone] was tested, and the transfection efficiency was 1.27 ± 0.28.
In the case of `CC(C)(C(=O)O)c1ccc(C(O)CCCN2CCC(C(O)(c3ccccc3)c3ccccc3)CC2)cc1` (stereo not given) [Fexofenadine hydrochloride], the transfection efficiency is reported as 1.03 ± 0.092.
`CC1CNc2c(cccc2S(=O)(=O)N[C@@H](CCCNC(=N)N)C(=O)N2CC[C@@H](C)C[C@@H]2C(=O)O)C1` (stereo not given in full) [Argatroban] gave a transfection efficiency of 0.972 ± 0.24.
With `O=c1[nH]cnc2c1ncn2[C@H]1CC[C@@H](CO)O1` [Didanosine] the transfection efficiency was 1.18 ± 0.042.
Molecule `CC(C)NCC(O)COc1ccc(COCCOC(C)C)cc1` (stereo not given) [Bisoprolol fumarate] has a transfection efficiency of 1.01 ± 0.22.
In the case of `CCN1CCN(c2cc3c(cc2F)c(=O)c(C(=O)O)cn3C2CC2)CC1` [Enrofloxacin], the transfection efficiency is reported as 1.07 ± 0.15.
In the case of `O=C1N(c2ccccc2)c2ccccc2C1(Cc1ccncc1)Cc1ccncc1` [Linopirdine dihydrochloride], the transfection efficiency is reported as 0.865 ± 0.13.
For `CN(C)CCC=C1c2ccccc2COc2ccccc21` [Doxepin hydrochloride], the transfection efficiency was 1.1 ± 0.32.
`C[C@@H]1CN(CCCn2c3ccccc3c3ccccc32)C[C@H](C)N1` [Rimcazole dihydrochloride] was tested, and the transfection efficiency was 0.955 ± 0.028.
For `Nc1nc2ccc(OC(F)(F)F)cc2s1` [Riluzole hydrochloride], the transfection efficiency was 1.38 ± 0.16.
Molecule `NC(N)=Nc1nc(CSCC/C(N)=N/S(N)(=O)=O)cs1` [Famotidine] has a transfection efficiency of 1.21 ± 0.17.
With `CN(C)CCN(Cc1ccccc1)c1ccccn1` [Tripelennamine hydrochloride] the transfection efficiency was 0.734 ± 0.14.
